{"source": "patent US20160051641", "test_system": "thrombin", "experiment": "inhibition of the protein", "conditions": "clotting assay, 10 IU/ml thrombin; TBA2 inhibition reversed by its antisense less efficiently than TBA1; exosite II binder; purified native protein; single-stranded DNA; dose not given here"}
{"sequence": "AGTCCGTGGTAGGGCAGGTTGGGGTGACT [TBA2 (TASSET-29)]", "values": [{"measurement": "functional effect of the aptamer", "result": "active"}]}
